Laboratory results from US20250073234A1, “COMBINATION THERAPIES INCLUDING PARP1 INHIBITORS” (Cornell University, priority 2022, published 2025).
At least one compound was matched to its structure with a doubt left.

Key:
Assay type in all cases: cell-based, human
WPMY-1 cells = experiment: qPCR of CAF / stromal activation markers in WPMY-1 cells; conditions: Lestaurtinib 50 nM plus Olaparib 10 μM
Text: To knock out PARP-1 in WPMY-1 cells, single-guide RNA sequences targeting PARP-1 exon2 were purchased from Synthego and transduced into WPMY-1 cells with recombinant Streptococcus pyogenes Cas9 protein (Truecut Cas9 Protein v2, Thermo), using the Neon Transfection System 1 (Invitrogen) following the manufacturer's protocol and single clones were expanded and screened by protein immunoblotting. To perform AP1-A binding site editing in the SQSTM promoter in WPMY-1 cells, single-guide RNA sequences targeting the human AP1-A binding site (Synthego) was transduced into cells with a Cas9 protein and a single-stranded donor oligonucleotide (ssODN, IDT) using Neon Electroporation System. Single clones were expanded and screened for AP1-A editing by Sanger sequencing. […]
Total RNA from mouse tissues, cells and cultured organoids was extracted using the TRIZOL reagent (Invitrogen) and the RNeasy Mini Kit (QIAGEN), followed by DNase treatment. After quantification using a Nanodrop 1000 spectrophotometer (Thermo Scientific), RNA was either processed for RNA-seq or reverse-transcribed using random primers and MultiScribe Reverse Transcriptase (Applied Biosystems). Gene expression was analyzed by amplifying 20 ng of the complementary DNA using the CFX96 Real Time PCR Detection System with SYBR Green Master Mix (BioRad) and primers described in Table S1. […]

PC3 cells = experiment: Click-iT EdU proliferation of PC3 cells treated with CM from WPMY-1 cells; conditions: Olaparib 10 μM + Lestaurtinib 50 nM, or CM incubated with antibodies
Procedure: WPMY-1 cells were cultured in DMEN containing 10% FBS (basal conditions) or 10% charcoal stripped FBS (ADT conditions), then the cells were treated with vehicle (DMSO), Olaparib 10 μM, Olaparib 10 μM+PEGPH20 2.5 μg/ml for 96 hours, refreshing media and stimuli at 48 hours, conditioned media (CM) was generated by collecting supernatant on day 4. PC3 cells were seeded in a black-walled well (Thermo Fisher) and serum starved overnight. CM from WPMY-1 cells was added to PC3 for 24 h. PC3 were exposed to EdU incorporation for the last 2 hours. Proliferating cells were detected using Click-iT EdU Alexa fluor 488 (Thermo Fisher) following the manufacturer's instructions. Pictures were taken using EVOS M5000 Imaging System and EdU positive were measured using Fiji (Schindelin et al., 2012).

[1] = tested on: p62 (SQSTM1) in WPMY-1 cells; experiment: p62/SQSTM1 expression in WPMY-1 stromal fibroblasts (immunoblot, qPCR); conditions: lactate-treated WPMY-1 cells, 48 h; NAD 150 μM, NR 200 μM
Text: To knock out PARP-1 in WPMY-1 cells, single-guide RNA sequences targeting PARP-1 exon2 were purchased from Synthego and transduced into WPMY-1 cells with recombinant Streptococcus pyogenes Cas9 protein (Truecut Cas9 Protein v2, Thermo), using the Neon Transfection System 1 (Invitrogen) following the manufacturer's protocol and single clones were expanded and screened by protein immunoblotting. To perform AP1-A binding site editing in the SQSTM promoter in WPMY-1 cells, single-guide RNA sequences targeting the human AP1-A binding site (Synthego) was transduced into cells with a Cas9 protein and a single-stranded donor oligonucleotide (ssODN, IDT) using Neon Electroporation System. Single clones were expanded and screened for AP1-A editing by Sanger sequencing. A point mutation to disrupt the API enhancer element in the p62 promoter was introduced by Site Directed Mutagenesis (Stratagene). Knockdown of MCT1, MCT4, FOS, PARP1, PARP2, CD38, ATG5, and SIRT1-7 genes in WPMY-1 cells were achieved by siRNA transfection using Lipofectamine RNAiMAX Transfection Reagent (Invitrogen). Transient overexpression was achieved by transfection using X-tremeGENE HP transfection reagent (Roche). Transfected cells were examined 48 hours after transfection. Establishing stably GFP or RFP expressing cells was achieved by lentivirus-mediated transduction. […]

In the case of `C[C@]12O[C@H](C[C@]1(O)CO)n1c3ccccc3c3c4c(c5c6ccccc6n2c5c31)CNC4=O` [Lestaurtinib], the “expression of HAS3, HAS2 and IL6 induced by Ola” value (WPMY-1 cells) is reported as “reduces the expression of HAS3, HAS2 and IL6 induced by Ola” and the “proliferation of cancer cells induced by Ola-treated stromal cells (EdU)” value (PC3 cells) is reported as “completely blocks the proliferation of cancer cells induced by Ola-treated stromal cells”.

`CC(=O)C(=O)O` [pyruvate] was tested, and the “rescue of lactate-induced reduction in p62” value [1] was “clearly impairs the ability of lactate to downregulate p62”.
